# Results taken from PubChem BioAssay AID2073 (Sanford-Burnham Center for Chemical Genomics, 2009).
# Amino acid sequences for entries named in this document (tags omitted).
# UniProt Q00975, whole entry, looked up: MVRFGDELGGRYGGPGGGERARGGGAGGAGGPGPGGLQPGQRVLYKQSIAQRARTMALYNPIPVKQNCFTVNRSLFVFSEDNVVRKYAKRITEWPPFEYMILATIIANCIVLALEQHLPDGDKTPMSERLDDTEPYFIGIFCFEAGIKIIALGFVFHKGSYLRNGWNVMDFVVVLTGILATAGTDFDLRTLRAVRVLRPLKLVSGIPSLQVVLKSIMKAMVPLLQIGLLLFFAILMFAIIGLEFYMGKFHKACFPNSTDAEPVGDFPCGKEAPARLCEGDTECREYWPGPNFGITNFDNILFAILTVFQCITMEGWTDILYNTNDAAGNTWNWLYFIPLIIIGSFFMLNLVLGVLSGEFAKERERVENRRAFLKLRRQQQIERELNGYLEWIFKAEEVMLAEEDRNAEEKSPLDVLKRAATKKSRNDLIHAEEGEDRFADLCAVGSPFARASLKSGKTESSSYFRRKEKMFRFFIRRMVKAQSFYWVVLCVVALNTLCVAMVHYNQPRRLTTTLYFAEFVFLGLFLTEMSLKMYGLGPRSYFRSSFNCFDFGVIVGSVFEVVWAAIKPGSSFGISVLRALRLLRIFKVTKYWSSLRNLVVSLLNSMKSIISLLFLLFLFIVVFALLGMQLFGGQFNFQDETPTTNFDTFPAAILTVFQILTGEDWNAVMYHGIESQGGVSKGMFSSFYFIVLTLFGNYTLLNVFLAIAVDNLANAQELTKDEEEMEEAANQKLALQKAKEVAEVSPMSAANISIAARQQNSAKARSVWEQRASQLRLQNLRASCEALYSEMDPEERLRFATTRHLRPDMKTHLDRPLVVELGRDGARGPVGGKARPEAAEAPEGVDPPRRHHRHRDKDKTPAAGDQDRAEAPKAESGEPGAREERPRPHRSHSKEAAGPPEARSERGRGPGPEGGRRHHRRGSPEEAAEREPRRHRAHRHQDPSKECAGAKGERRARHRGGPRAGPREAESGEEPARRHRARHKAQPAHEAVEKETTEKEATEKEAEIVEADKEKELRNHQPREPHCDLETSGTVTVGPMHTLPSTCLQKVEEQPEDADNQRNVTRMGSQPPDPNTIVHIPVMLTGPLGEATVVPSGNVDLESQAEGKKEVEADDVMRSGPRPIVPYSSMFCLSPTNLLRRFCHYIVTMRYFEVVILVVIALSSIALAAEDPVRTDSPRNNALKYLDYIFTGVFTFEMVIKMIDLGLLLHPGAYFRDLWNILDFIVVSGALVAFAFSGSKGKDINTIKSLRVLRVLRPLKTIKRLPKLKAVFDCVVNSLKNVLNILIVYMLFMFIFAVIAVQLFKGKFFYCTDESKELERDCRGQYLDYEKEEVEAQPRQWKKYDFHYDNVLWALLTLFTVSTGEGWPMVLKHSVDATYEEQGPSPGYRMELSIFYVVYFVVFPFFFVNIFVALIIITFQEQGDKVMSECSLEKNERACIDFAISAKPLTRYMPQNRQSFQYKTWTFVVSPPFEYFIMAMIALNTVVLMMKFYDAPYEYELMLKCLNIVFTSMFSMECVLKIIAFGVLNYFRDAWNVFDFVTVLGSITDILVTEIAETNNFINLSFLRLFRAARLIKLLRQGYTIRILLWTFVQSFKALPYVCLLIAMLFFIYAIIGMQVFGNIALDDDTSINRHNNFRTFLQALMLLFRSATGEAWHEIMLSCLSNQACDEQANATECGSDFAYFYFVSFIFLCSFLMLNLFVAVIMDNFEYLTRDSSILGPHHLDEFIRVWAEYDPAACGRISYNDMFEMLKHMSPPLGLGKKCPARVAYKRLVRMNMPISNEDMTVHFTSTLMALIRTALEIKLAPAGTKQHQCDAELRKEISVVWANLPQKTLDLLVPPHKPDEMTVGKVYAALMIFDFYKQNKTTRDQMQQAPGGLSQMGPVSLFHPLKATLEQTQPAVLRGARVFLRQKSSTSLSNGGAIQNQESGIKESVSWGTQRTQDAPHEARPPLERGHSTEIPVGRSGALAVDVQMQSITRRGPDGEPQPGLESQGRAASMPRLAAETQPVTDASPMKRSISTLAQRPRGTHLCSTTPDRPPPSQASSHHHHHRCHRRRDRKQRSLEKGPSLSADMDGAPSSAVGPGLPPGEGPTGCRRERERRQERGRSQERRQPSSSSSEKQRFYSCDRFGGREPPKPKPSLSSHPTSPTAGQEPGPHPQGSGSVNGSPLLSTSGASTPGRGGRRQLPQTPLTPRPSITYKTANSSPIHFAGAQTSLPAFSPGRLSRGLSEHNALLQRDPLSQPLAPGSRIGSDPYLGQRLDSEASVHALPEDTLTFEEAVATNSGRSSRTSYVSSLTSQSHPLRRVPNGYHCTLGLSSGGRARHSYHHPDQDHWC
# Where “and” joins values, the source holds several entries; their conditions need not be identical. Identical values can stand only once. The whole screen tested about 290,000 compounds, of which about 570 (0.2%) were called active. Inconclusive means that the source gave no clear call. Such entries were picked first, then a sample of the others. Cut-off read from the data, not from the text of the source: active = inhibition mostly above about 51% (no sharp cut-off); inconclusive = no clear call, values can overlap the other calls; inactive = mostly below about 53%.
# Target: Voltage-dependent N-type calcium channel subunit alpha-1B (Homo sapiens) (UniProt Q00975)
# Experiment: disruptors of CaV2.2 binding to Mint1 – biochemical, HTRF (AID 2073)
# Conditions: HTRF protein-protein interaction, Mint1-CaV2.2; at 20 µM; stronger effect = higher value
row,SMILES,inhibition
1,O=C1N=C(N2CCN(c3ccccc3)CC2)S/C1=C\c1ccco1,inactive: 37.7%
2,CCCCNC(=O)CSc1nnc(-c2ccc(S(=O)(=O)N3CCCC3)cc2)n1C,inconclusive: 53.1%
3,CCOc1cc(NC(=O)c2ccccn2)c(OCC)cc1NC(=O)c1ccc(Cl)cc1,inconclusive: 66.8%
4,O=C(C(=O)N1CCCc2ccccc21)c1cn(CC(=O)N2CCOCC2)c2ccccc12,inconclusive: 83.6%
5,NC(=O)NOCc1ccc(F)cc1Cl,inconclusive: 77.2%
6,CCC(C)C(=O)Nc1ccc(S(=O)(=O)Nc2nccs2)cc1 (stereo not given),inconclusive: 51.2%
7,O=c1[nH]c2ccccc2n1C1CCCCC1,inconclusive: 52.7%
8,COc1cccc(-c2cc(C(F)(F)F)c3c(N)c(C#N)sc3n2)c1,inconclusive: 54.2%
9,Cc1ccc(Nc2nc(=O)c3cccnc3s2)cc1,inactive: 2.2%
10,CS(=O)(=O)c1ccc(C(=O)Nc2cc(S(C)(=O)=O)ccc2Cl)cc1,inconclusive: 84.3%
11,O=C(c1cccs1)N(C(=O)c1cccs1)c1ccccn1,inconclusive: 84.6%
12,CCCCOc1cc(=O)[nH]c(=O)[nH]1,inconclusive: 56.7%
13,O=C(Nc1nc(-c2cccnc2)cs1)c1ccc([N+](=O)[O-])cc1,inactive: 19%
14,O=C(Nc1ccc(F)cc1)Nc1nnc(-c2ccncc2)s1,inactive: 50.5%
15,Cc1ccc(NC(=O)c2cc(N3C(=O)C=CC3=O)ccc2Cl)cc1C,active: 59.1%
16,Cc1ccc(C(O)CCc2ccc(N)cc2)cc1 (stereo not given),inconclusive: 74.4%
17,O=C(c1cccc(-c2ccccc2F)c1)N1CC[C@@H](N2CCC(O)CC2)[C@H](O)C1,inconclusive: 58.9%
18,CC1CCCC(C)N1C(=O)COc1ccc(C(=O)Nc2ccccc2N2CCOCC2)cc1 (stereo not given),inconclusive: 51.9%
19,COc1ccc(CC(=O)Nc2ccc(-c3nc4cc(C)ccc4o3)c(O)c2)cc1OC,inconclusive: 51.1%
20,O=C(c1ccco1)N1CCN(C(=O)N2CCCCC2)CC1,inconclusive: 51.1%
21,O=C(NCC(c1ccco1)N1CCCC1)c1sc2ccccc2c1Cl (stereo not given),inconclusive: 51.1%
22,COc1ccc(-c2nc(CS(=O)(=O)CC(=O)NCc3ccccc3OC)c(C)o2)cc1,inconclusive: 85.6%
23,CN(C)C(=O)NC1CCCCCCCCCCC1,inconclusive: 57%

row,SMILES,inhibition
1,C=CCn1c(SCC(=O)Nc2ccccc2)nnc1-c1cccc(S(=O)(=O)N2CCOCC2)c1,inconclusive: 52.6%
2,O=S(=O)(/C=C/c1ccccc1)N1CCN(c2cccc(Cl)c2)CC1,inconclusive: 61.8%
3,COc1ccc(C2CC(c3ccccc3)=NN2c2ccc(S(N)(=O)=O)cc2)cc1 (stereo not given),inconclusive: 57.9%
4,Cc1nc2ccc(NC(=O)C3COc4ccccc4O3)cc2s1 (stereo not given),inconclusive: 56.4%
5,Cn1c(CCNC(=O)c2ccco2)nc2cc(NS(=O)(=O)c3ccc(Cl)cc3)ccc21,inconclusive: 63.4%
6,CC(C)=CCc1c2c(c3occ(-c4ccc(O)cc4)c(=O)c3c1O)C=CC(C)(C)O2,inconclusive: 69.9%
7,O=C(Nc1ccc(N2CCOCC2)cc1)Nc1ccc2nc(-c3ccco3)c(-c3ccco3)nc2c1,inactive: 48.8%
8,CN(C)S(=O)(=O)c1ccc(Cl)c(C(=O)NCC2CCCCC2)c1,inconclusive: 50.4%
9,CN1CCN(c2c(F)cc3c(=O)c(C(=O)O)cn4c3c2SCC4)CC1,active: 53.3% and inconclusive: 51.1%
10,Brc1cccc(-c2nnc3sc(CN4CCCCC4)cn23)c1,inconclusive: 80.5%
11,O=c1c2cc(N3CCOCC3)ccc2[nH]c(=S)n1CCCN1CCCCC1,inconclusive: 60.6%
12,CC(NCC(O)COc1ccc2ccccc2c1)c1ccccc1 (stereo not given),inconclusive: 51.2%
13,CCOC(=O)c1sc(=NC(=O)c2ccc(C)cc2)n(C)c1C,inconclusive: 65.9%
14,CCc1ccc2[nH]c(=O)c(C(c3nnnn3CC3CCCO3)N3CCCc4ccccc43)cc2c1 (stereo not given),inactive: 73%
15,Cc1nc2cc(NC(=O)NCc3ccc4c(c3)OCO4)ccc2o1,inconclusive: 63.2%
16,CCOc1ccc2nc(NC(=O)CN3CCOCC3)sc2c1,inconclusive: 66%
17,Cc1[nH]c(=O)cc2ccccc12,inconclusive: 84.7%
18,O=C1OCc2ccc(NC(=O)c3ccccc3C(=O)O)cc21,inconclusive: 63.7%
19,CCOC(=O)CC(=O)CSc1nc(-c2ccccc2)cc(-c2ccc(Cl)cc2)c1C#N,inconclusive: 59.6%
20,COc1ccc(N2CCN(CCNC(=O)Nc3cccc(C)c3C)CC2)cc1,inactive: 0.6%
21,CCOC(=O)/C(C#N)=C1/C=Nc2ccccc2N1,inactive: 14.4%
22,Cc1ccc(/C=C2\Oc3c(ccc(O)c3CN3CCN(CCO)CC3)C2=O)cc1,inconclusive: 64.1%
23,O=C1CC(c2ccco2)Cc2c1cnn2-c1nc2ccccc2s1 (stereo not given),inconclusive: 52.2%

row,SMILES,inhibition
1,CCOc1ccc(N2CC(C(=O)Nc3ccc(S(=O)(=O)Nc4ncccn4)cc3)CC2=O)cc1 (stereo not given),inconclusive: 50.7%
2,CCCN1CCC(=O)N([C@H](CO)c2ccccc2)CC1,inactive: 5.6%
3,CC(=O)Nc1cc2c3c(c1)CCN3C(=O)CC2,inactive: 0.4%
4,Cc1ccsc1C(=O)NC(C)c1ccc2c(c1)OCO2 (stereo not given),inconclusive: 67%
5,O=C1NC(=S)S/C1=C/c1ccc(N2CCOCC2)o1,inactive: 32.5%
6,COc1cc2c(cc1NC(=S)NC(=O)/C=C/c1ccc(OC)c(OC)c1)oc1ccccc12,inactive: 14.5%
7,CCc1cccc(C)c1NC(=O)CSc1nc2ccc(N3C(=O)c4ccccc4C3=O)cc2s1,inactive: 17.8%
8,CCCCOc1ccc(C(=O)NCC(=O)NC(C)CCc2ccccc2)cc1 (stereo not given),inconclusive: 67.6%
9,O=C(Nc1nnc(CSCc2ccc(Cl)cc2)s1)c1cccc([N+](=O)[O-])c1,inconclusive: 58.8%
10,CCOc1ccc(NC(=O)CCC(=O)OC)cc1,inconclusive: 74.4%
11,CC(C)(C)C1CCC(=NNC(=O)C(=O)NC2CCCCC2)CC1 (stereo not given),inactive: 2.1%
12,COc1cccc(C2C(C(=O)/C=C/c3ccco3)=C(O)C(=O)N2CCN2CCOCC2)c1 (stereo not given),inconclusive: 76.6%
13,O=C(Nc1ccc(S(=O)(=O)N2CCOCC2)cc1)c1ccc(S(=O)(=O)N2CCOCC2)cc1,inactive: 7.3%
14,O=C(N/N=C/c1cccnc1)c1ccc(NC(=O)c2ccc(Cl)cc2)cc1,inconclusive: 72.2%
15,Cc1ccc(-c2nc3ccccc3o2)cc1NC(=O)Cc1cccs1,inconclusive: 55.6%
16,CC(=O)NC(=S)Nc1ccc(NC(=O)COc2ccc(C(C)C)cc2)cc1,inconclusive: 60.2%
17,COCC(=O)NNC(=O)c1ccccc1OC,inactive: -3.5%
18,COC(=O)c1cc2n(n1)CCCNC2=O,inconclusive: 98%
19,Cc1cccc(OCC(=O)O/N=C(\N)c2ccc(Cl)cc2)c1,inconclusive: 84.8%
20,CCCC(=O)NCn1nnc(-c2ccc(Cl)cc2)n1,inconclusive: 62.7%
21,COc1ccc(/C=C/c2ccc3c(Br)ccc(O)c3n2)cc1,inactive: 32.5%
22,CCCn1c2ccccc2c2cnn(CC(=O)NCCCN3CCCCC3)c(=O)c21,inconclusive: 75.4%
23,COC(=O)Cc1c(C)c2c(O)cc(C)cc2oc1=O,inconclusive: 61.9%

row,SMILES,inhibition
1,COc1cccc(CNC(=O)CSc2nnc3c(n2)[nH]c2ccc(OC)cc23)c1,inactive: 5.3%
2,CCNC(=S)N(Cc1cccs1)Cc1cc2cc(OCC)ccc2[nH]c1=O,inconclusive: 75.2%
3,CCOC(=O)CNC(=O)CCCCCC(=O)NCC(=O)OCC,inconclusive: 55.5%
4,Cc1cc(NC(=O)CCC(=O)N(CC(=O)NC2CCCC2)Cc2ccc3c(c2)OCO3)no1,inconclusive: 79.1%
5,Cc1n[nH]c(=S)n1/N=C/c1ccccc1OCc1ccc(Cl)cc1,inconclusive: 50.1%
6,CCOc1ccc(S(=O)(=O)N2CCOCC2)cc1NC(=O)CSCC(=O)Nc1cccc(C)c1,inconclusive: 70.9%
7,O=C(NCCCn1ccnc1)c1ccccc1NS(=O)(=O)c1ccc(F)c(F)c1,inconclusive: 52%
8,Cc1cc2ccccn2c1C(=O)c1ccc(N/N=C/c2ccc(C(=O)O)cc2)c([N+](=O)[O-])c1,active: 69.4%
9,O=C(Nc1ccc(N2CCOCC2)cc1Cl)C1CCN(C(=O)OCc2ccccc2)CC1,inactive: -2.8%
10,Cc1ccc2sc(-c3ccc(NC(=O)/C=C\C(=O)O)cc3)nc2c1,inconclusive: 70.8%
11,O=C1CC(C(F)(F)C(F)(F)C(F)(F)C(F)F)=Nc2ccccc2N1,inconclusive: 91.4%
12,CC1CCCCN1CCn1cnc2c([nH]c3ccccc32)c1=O (stereo not given),inconclusive: 80.2%
13,CCc1cc2c(=O)c(-c3nc(C)cs3)c(CCCC(=O)O)oc2cc1O,inconclusive: 65.6%
14,Cn1ccnc1SCC(=O)Nc1ccc2ccccc2c1,inconclusive: 66.7%
15,CC(C)n1c(SCC(=O)N2CCN(C(=O)c3ccco3)CC2)nc2c1c(=O)n(C)c(=O)n2C,inconclusive: 55.7%
16,COc1ccc(NC(=O)c2cc3c(CO)cnc(C)c3oc2=Nc2cccc(F)c2)c(OC)c1,inactive: 11.2%
17,Cc1cc(=O)cc(C)n1-c1ccc(Cl)cc1,inactive: 7.3%
18,CCN(CC)S(=O)(=O)c1cc(C(=O)OCC(=O)Nc2cccc(Br)c2)ccc1F,inactive: -2.8%
19,Cc1ccc(/C=N/NC(=O)c2nnn(-c3nonc3N)c2C(C)C)s1,inconclusive: 58.9%
20,CC1CC2(C)CC(C)C1(COC(=O)Nc1ccccc1)CO2 (stereo not given),inconclusive: 62.8%
21,Cc1ccc(-c2nnc(SCC(=O)Nc3ccccc3N3CCOCC3)o2)cc1,inconclusive: 63.4%
